The structures appear in SMILES notation. Some of the results follow. Further columns of the screen follow, without active or inactive calls. The list favours compounds with an active or inconclusive main result. Potencies come from curve fits of mixed quality, noted in brackets.

The record followed here is PubChem BioAssay AID445 (National Center for Advancing Translational Sciences (NCATS), 2006).

This experiment is described as follows: IkB Signaling. The following applies: ABC-DLBCL IkBa-CBG/CBR dual luciferase ratio (green luciferase fused to IkBa over red control in OCI-Ly3 lymphoma cells), 4 h. The procedure, abridged: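 Luminescence ratio of IκBα-fused green versus native red beetle luciferase in OCI-Ly3 cells, 4 h post-doxycycline with compound; red signal alone, scaled from basal (0%) to zero light (-100%), flagged nonspecific or cytotoxic effects.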
Setting [1] is: measured here: control luc red channel unless noted.
Where [2] appears, read: measured here: IkB-luc green channel.
The mark [3] stands for this setting: measured here: control luc red channel.

On to `CCOc1ccc(/C=C/c2nc(C#N)c(N(C)C)o2)cc1`, for which the AC50 under setting [1] was 1.58 µM [rising, full curve, poor fit].

For the molecule `Cn1c(C(=O)N2CCC(C(=O)N3CCN(Cc4ccc5c(c4)OCO5)CC3)CC2)cc2sccc21`, the AC50 under setting [1] was 12.6 µM [falling, partial curve].

For `CCOc1ccccc1CNC(=O)c1nn(C)c2c1CS(=O)(=O)c1ccccc1-2`, the AC50 under setting [1] is 10 µM [falling, partial curve].

Consider `CC(C)c1ccc(CNc2nc(-c3ccco3)nn2S(=O)(=O)c2ccccc2)cc1`, for which the AC50 under setting [1] was 10 µM [falling, partial curve].

Consider `COc1ccc([N+](=O)[O-])c2c1CCN2C(=O)CC[C@H](N)C(=O)O`, for which, under setting [1], the AC50 was 7.94 µM [rising, partial curve].

On to `COc1ccc(CCNc2nnc(Sc3nnnn3-c3ccccc3)s2)cc1OC`, for which the AC50 under setting [1] is 12.6 µM [falling, partial curve].

On to `N#C/C(=C\c1ccc(O)c(O)c1)C(=O)Nc1ccccc1`, for which, under setting [1], the AC50 is 31.6 µM [falling, partial curve].

Take `Cc1cccc(Cc2c(C)nc3c(C(=O)NCc4ccco4)cnn3c2C)c1`: the AC50 under setting [1] is 15.8 µM [falling, partial curve].

As for `Cc1ccc(-c2nnc(SCC(=O)NCCC(C)C)nc2-c2ccc(C)cc2)cc1`, the concentration at half-maximal activity (AC50) under setting [1] is 39.8 µM [falling, single point].

`Cc1cc(NC(=O)C2CCCN(S(=O)(=O)c3ccc(Br)s3)C2)ccc1Br` (centres undefined): under setting [1], the AC50 is 10 µM [falling, partial curve].

Take `Cc1cc2nn(-c3ccc(F)cc3)nc2cc1NC(=O)c1cc(Cl)ccc1Cl`: under setting [1], the AC50 was 20 µM [rising, partial curve, poor fit].

`O=C(Nc1ccc2c(c1)nc1n2CCOC1)c1ccccc1`: the AC50 under setting [1] was 2.51 µM [falling, full curve].

In the case of `O=C(c1ccc(COc2ccccc2Br)o1)N1CCCCCC1`, under setting [1], the AC50 was 15.8 µM [falling, partial curve].

Consider `O=C1NC(=O)C(c2ccccc2[N+](=O)[O-])=C1Nc1ccc(O)c(Cl)c1`, for which the AC50 runs as follows: under setting [2], 20 µM [falling, partial curve]; under setting [3], 39.8 µM [falling, single point].

Take `COc1ccc(-n2ncc(C(=O)Nc3ccc(C)cc3Cl)c2C2CCN(C(=O)OC(C)(C)C)CC2)cc1`: the AC50 under setting [1] was 31.6 µM [falling, partial curve].

As to `Cn1c(=O)n(C)c2cc(NS(=O)(=O)c3ccc4c(c3)CCCC4)ccc21`, the AC50 under setting [1] was 10 µM [rising, partial curve] [measured here: IkB-luc green channel].

`O=S(=O)(NCCc1csc(-c2ccc(F)cc2)n1)c1ccc(F)cc1F`: the AC50 under setting [1] is 1.26 µM [falling, full curve, poor fit].

For `Cc1oc(-c2ccccc2)nc1C(=O)OCC(=O)NC(=O)NCC(C)C`, the AC50 under setting [1] is 10 µM [falling, partial curve].

Regarding `O=C(Nc1ccc(F)cc1)c1ccc(-n2cnnc2)cc1`, the AC50 under setting [1] was 0.126 µM [rising, full curve].

`C=CCNC(=O)NC(=O)COC(=O)CCCSc1nc2ccccc2[nH]1`: the AC50 under setting [1] was 5.01 µM [falling, partial curve].

Consider `Cc1ccc(-c2noc(CN(C(=O)CCCN3C(=O)c4ccccc4C3=O)C(C)C)n2)cc1`, for which, under setting [1], the AC50 is 12.6 µM [falling, partial curve].

On to `COC(=O)c1ccc(NC(=O)CSc2ccc(-c3cccs3)nn2)cc1`, for which the AC50 under setting [1] was 0.158 µM [falling, single point].

With `NS(=O)(=O)c1ccc(CCNc2ncnc3sccc23)cc1`, the AC50 under setting [1] was 12.6 µM [falling, partial curve].

For `O=C(NCCc1nc2ccccc2n1CCOc1ccc(Cl)cc1)C1CCCCC1`, the AC50 under setting [1] is 25.1 µM [falling, partial curve].

In the case of `COc1ccccc1NC(=O)CN1CCN(CC(=O)Nc2ccc(OCc3ccccc3)cc2)CC1`, the half-maximal activity concentration (AC50) under setting [1] was 2.51 µM [falling, partial curve].

Consider `O=C(Nc1ccc(NC(=O)c2ccco2)nc1)c1cccnc1`, for which, under setting [1], the AC50 is 15.8 µM [falling, partial curve].

Regarding `CCc1ccc(NC(=O)C(Cc2ccccc2)NS(=O)(=O)c2ccc3c(c2)CCN3C(C)=O)cc1` (centres undefined), the AC50 under setting [1] is 15.8 µM [falling, partial curve].

`C#CCOc1ccc(C2C(C(=O)OC)=C(C)NC3=C2C(=O)c2ccccc23)cc1OCC` (centres undefined): under setting [1], the half-maximal activity concentration (AC50) is 15.8 µM [falling, single point].

As to `CCOc1ccc(Sc2cc(C(=O)NCCCOC)c3ccccc3n2)cc1`, under setting [1], the AC50 is 12.6 µM [falling, partial curve].

For `Clc1ccc(CCNc2ncnc3nc[nH]c23)cc1`, the AC50 under setting [1] is 10 µM [falling, partial curve].

With `CCOc1ccc(NC(=O)CSc2nnc(CC)c(CC)n2)cc1`, the AC50 under setting [1] is 20 µM [falling, partial curve, poor fit].

Consider `Cc1ccc2c(c1)-c1c(cnn1CC(=O)Nc1ccccc1N1CCN(C)CC1)CO2`, for which the AC50 under setting [1] is 31.6 µM [falling, single point].

In the case of `Cc1cccc(C)c1NC(=O)C1CCCN(S(=O)(=O)c2c(C)noc2/C=C/N(C)C)C1` (centres undefined), the AC50 under setting [1] was 25.1 µM [falling, single point].

For `COc1ccccc1CNC(=O)c1ccc(NC(=O)N2CC(C)Sc3ccccc32)cc1` (centres undefined), under setting [1], the AC50 is 12.6 µM [falling, partial curve].

On to `COc1ccc(S(=O)(=O)NCC(c2ccco2)S(=O)(=O)c2ccc(C)cc2)cc1C` (centres undefined), for which, under setting [1], the AC50 was 15.8 µM [falling, partial curve, poor fit].

For the molecule `Cc1nn2c(c1-c1ccccc1)N=C(c1ccco1)CC2c1ccccc1` (centres undefined), the AC50 under setting [1] was 6.31 µM [falling, partial curve].

On to `O=C(Nc1ccc2nc(SCC(=O)N3CCCc4ccccc43)sc2c1)c1cccc(F)c1`, for which the AC50 under setting [1] was 3.16 µM [falling, full curve].

`COc1cccc(CNC(=O)c2ccc(CSc3nc4ccncc4n3Cc3cccc(C)c3)cc2)c1`: under setting [1], the AC50 is 12.6 µM [falling, partial curve].

As for `COc1cc(NC(=O)CCc2c(C)nn(-c3ccc4nncn4n3)c2C)cc(OC)c1OC`, the AC50 under setting [1] was 0.158 µM [rising, full curve].

As to `Cc1ccc(Cl)cc1N1CCN(S(=O)(=O)c2ccc3[nH]c4c(c3c2)CCCCC4)CC1`, the AC50 under setting [1] is 10 µM [falling, partial curve].

With `Cc1cccc(CSc2ncc(CO)n2Cc2ccc(F)cc2)c1`, the AC50 under setting [1] was 1.26 µM [falling, partial curve].

Turning to `O=C(NC1CCCCCC1)c1ccc(N2CCCC2=O)cc1`, the AC50 under setting [1] was 7.94 µM [falling, partial curve].

With `COCCn1c(SCC(=O)Nc2ncc(C)s2)nc2sc3c(c2c1=O)CCC3`, the AC50 under setting [1] was 20 µM [falling, partial curve].

On to `COc1cccc(N2CCN(S(=O)(=O)c3cc(Br)cc4c3N(C(=O)C3CC3)CC4)CC2)c1`, for which the half-maximal activity concentration (AC50) under setting [1] is 0.00631 µM [falling, full curve, poor fit].

In the case of `Cc1cccc(N2C(=O)CSC23C(=O)N(Cc2cccc(F)c2)c2ccccc23)c1` (centres undefined), the AC50 under setting [1] is 20 µM [falling, partial curve].

Take `CN1CCN(C(CNC(=O)C(=O)Nc2ccccc2)c2ccc3c(c2)OCO3)CC1` (centres undefined): the AC50 under setting [1] is 0.316 µM [falling, full curve].

With `O=C(CSc1n[nH]c(=O)n1C1CC1)Nc1cc(Cl)ccc1Oc1ccccc1`, the AC50 under setting [2] is 20 µM [falling, partial curve] and the AC50 under setting [3] was 20 µM [falling, partial curve].

Regarding `Cc1cccc(-c2noc(CN(C(=O)COc3ccc(C(C)C)cc3)C(C)C)n2)c1`, under setting [1], the AC50 was 10 µM [falling, partial curve].

Take `CCOC(=O)c1c(C)n(-c2ccccc2)c2ccc(OC(=O)c3ccccc3)cc12`: the AC50 under setting [1] was 1.58 µM [rising, full curve].

`Cc1c(CC(=O)NCCc2ccccc2F)c(=O)oc2c(C)c3occ(C(C)(C)C)c3cc12`: the AC50 under setting [1] is 10 µM [falling, partial curve].

Take `COc1cccc(N2CCN(C(=O)c3ccc4c(=O)n(CCc5ccccc5)c(=O)[nH]c4c3)CC2)c1`: under setting [1], the AC50 was 0.398 µM [falling, full curve].

In the case of `CCOc1ccc(OCC)c(NC(=O)CN2CCN(c3cccc(C)c3)C(C)C2)c1` (centres undefined), the AC50 under setting [1] was 20 µM [falling, partial curve].

In the case of `CCc1ccc(S(=O)(=O)c2nnn3c2nc(N2CCC(C)CC2)c2cc(Cl)ccc23)cc1`, the AC50 under setting [1] is 12.6 µM [falling, partial curve].

Turning to `COc1ccc(-c2cc(C(=O)NCc3cc(OC)c(OC)c(OC)c3)[nH]n2)cc1`, under setting [1], the AC50 is 39.8 µM [falling, single point].

For `Cc1cccc(OCC(=O)Nc2c(C)ccc3nsnc23)c1C`, under setting [1], the AC50 is 20 µM [rising, partial curve, poor fit].

For `Cc1ccc(Cl)c2c1N[C@@H](c1ccc(C(=O)O)cc1)[C@H]1CC=C[C@@H]21`, under setting [1], the AC50 was 31.6 µM [falling, partial curve].

Turning to `CCOc1ccc(-c2nc(CSCC(=O)N3CCN(c4cccc(C(F)(F)F)c4)CC3)c(C)o2)cc1`, the AC50 under setting [1] was 15.8 µM [falling, partial curve].

Take `Cc1cc2c3c(c1)C1(C(=O)N3C(C)(C)CC2C)C(C#N)=C(N)Oc2cc(O)ccc21` (centres undefined): under setting [1], the AC50 was 12.6 µM [falling, partial curve].

As for `CCc1ccc(NC(=O)c2cc(C(C)=O)n3ccccc23)cc1`, the AC50 under setting [1] is 25.1 µM [falling, single point].

`CC(C)c1ccc(C2N3CC4(C)CN2CC(c2ccccc2)(C3)C4=O)cc1` (centres undefined): the half-maximal activity concentration (AC50) under setting [1] is 15.8 µM [falling, partial curve].

On to `CCCc1nn2c(=O)cc(COC(=O)c3cccc(NC(=O)COc4ccc(F)cc4)c3)nc2s1`, for which, under setting [1], the AC50 is 0.398 µM [falling, full curve].

With `Clc1cccc(N2CCN(c3ncnc4c3nc3n4CCCCC3)CC2)c1`, the AC50 under setting [1] was 3.98 µM [falling, full curve].

One may read the AC50 as the concentration giving half of the maximal activity seen.
